According to patent US5314908A, “Compounds useful as antiproliferative agents” (Whitby Research, Inc., priority 1992, dated 1994):
For at least one compound, name, drawing or mass did not settle the structure.

Tested on: Hs0578t cells
Test: growth inhibition of estrogen negative human breast cancer cell line Hs0578t in culture
Type: cell-based
Conditions: 10^-15 M to 10^-5 M; inhibitory = proliferation decreased by 20% or more vs controls
Description: The above examples were tested for their ability to inhibit the growth of both estrogen positive (MCF-7) and estrogen negative (Hs0578t) human breast cancer cell lines in culture. […] MCF-7 cells were maintained in Dulbecco's modified Eagle's medium (DMEM), supplemented with 10% fetal bovine serum (FBS), penicillin (10,000 units/ml) and streptomycin (10 mg/ml) at 37° C. in a humidified atmosphere containing 5% CO2. Hs0578t cells were maintained under similar conditions, however DMEM containing high glucose was used and 10 ug/ml of insulin was added to the medium. Prior to each experiment, cells from stock flasks were suspended by treatment with 0.2% EDTA in phosphate buffered saline (pH 7.3). The cells were then centrifuged at 1000 rpm for 7 minutes, then resuspended in fresh medium and counted on a hemocytometer. Cells were adjusted to a density of 3.0×10^6 /plate in 5 mls of supplemented plating medium. […] Five days after initial seeding, the cells were resuspended with PBS-EDTA and counted on a hemocytometer to determine the total cell counts per plate. […] Cell growth in each of the experimental plates was expressed as a percent of control growth (100%). […]

Q: Which “inhibition of Hs0578t cell growth, by concentration” value does the source give for CC(=O)NCCc1c(Cc2ccccc2)[nH]c2ccccc12 [Example #8, 2-Benzyl-3-Ethylacetamidoindole] here?
A: inhibits Hs0578t cell growth at 10^-9 M
